The target of assay [1] is T1, Flag-TONSL (human) (UniProt Q96HA7).
T1 sequence: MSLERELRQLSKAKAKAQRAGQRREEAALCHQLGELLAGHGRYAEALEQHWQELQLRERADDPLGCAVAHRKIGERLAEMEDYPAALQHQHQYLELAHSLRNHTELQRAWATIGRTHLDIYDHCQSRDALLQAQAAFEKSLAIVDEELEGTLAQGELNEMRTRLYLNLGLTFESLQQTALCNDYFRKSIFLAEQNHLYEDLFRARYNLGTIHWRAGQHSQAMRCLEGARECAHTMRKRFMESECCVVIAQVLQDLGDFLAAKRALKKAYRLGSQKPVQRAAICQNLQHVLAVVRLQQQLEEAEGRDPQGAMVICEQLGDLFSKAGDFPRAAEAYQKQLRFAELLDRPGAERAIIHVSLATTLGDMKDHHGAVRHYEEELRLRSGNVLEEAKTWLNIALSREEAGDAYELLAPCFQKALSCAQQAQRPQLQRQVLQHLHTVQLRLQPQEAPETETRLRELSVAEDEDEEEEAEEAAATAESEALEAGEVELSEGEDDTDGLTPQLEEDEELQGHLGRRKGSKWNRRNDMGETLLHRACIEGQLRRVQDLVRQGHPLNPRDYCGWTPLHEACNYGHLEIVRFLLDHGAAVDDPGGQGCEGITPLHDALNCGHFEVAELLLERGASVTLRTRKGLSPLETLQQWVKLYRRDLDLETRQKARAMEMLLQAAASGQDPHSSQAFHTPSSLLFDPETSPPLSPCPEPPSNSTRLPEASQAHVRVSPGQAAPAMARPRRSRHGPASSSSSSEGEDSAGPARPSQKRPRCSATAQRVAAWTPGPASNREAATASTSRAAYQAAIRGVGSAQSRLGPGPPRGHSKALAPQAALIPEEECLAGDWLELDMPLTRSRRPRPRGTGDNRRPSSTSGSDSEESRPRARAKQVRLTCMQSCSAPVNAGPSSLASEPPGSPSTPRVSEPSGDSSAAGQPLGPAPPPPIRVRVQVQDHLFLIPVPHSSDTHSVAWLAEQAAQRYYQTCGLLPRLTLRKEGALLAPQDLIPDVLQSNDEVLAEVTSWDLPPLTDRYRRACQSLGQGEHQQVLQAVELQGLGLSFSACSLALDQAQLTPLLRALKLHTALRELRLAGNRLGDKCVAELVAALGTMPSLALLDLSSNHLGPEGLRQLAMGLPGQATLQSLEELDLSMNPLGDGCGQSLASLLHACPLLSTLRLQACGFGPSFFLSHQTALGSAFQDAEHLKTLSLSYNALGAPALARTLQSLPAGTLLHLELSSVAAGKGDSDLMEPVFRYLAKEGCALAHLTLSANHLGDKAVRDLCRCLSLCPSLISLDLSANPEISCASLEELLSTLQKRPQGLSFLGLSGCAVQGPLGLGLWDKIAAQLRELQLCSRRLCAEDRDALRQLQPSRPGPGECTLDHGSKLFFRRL
Kind of assay: affinity purification with mass spectrometry; Flag antibody IP of proteins released by benzonase from native chromatin of HU-treated HeLa cells stably expressing Flag-TONSL or Flag-MMS22L.

Amino acid sequences for entries named in this document (tags omitted).
UniProt Q8IYD8: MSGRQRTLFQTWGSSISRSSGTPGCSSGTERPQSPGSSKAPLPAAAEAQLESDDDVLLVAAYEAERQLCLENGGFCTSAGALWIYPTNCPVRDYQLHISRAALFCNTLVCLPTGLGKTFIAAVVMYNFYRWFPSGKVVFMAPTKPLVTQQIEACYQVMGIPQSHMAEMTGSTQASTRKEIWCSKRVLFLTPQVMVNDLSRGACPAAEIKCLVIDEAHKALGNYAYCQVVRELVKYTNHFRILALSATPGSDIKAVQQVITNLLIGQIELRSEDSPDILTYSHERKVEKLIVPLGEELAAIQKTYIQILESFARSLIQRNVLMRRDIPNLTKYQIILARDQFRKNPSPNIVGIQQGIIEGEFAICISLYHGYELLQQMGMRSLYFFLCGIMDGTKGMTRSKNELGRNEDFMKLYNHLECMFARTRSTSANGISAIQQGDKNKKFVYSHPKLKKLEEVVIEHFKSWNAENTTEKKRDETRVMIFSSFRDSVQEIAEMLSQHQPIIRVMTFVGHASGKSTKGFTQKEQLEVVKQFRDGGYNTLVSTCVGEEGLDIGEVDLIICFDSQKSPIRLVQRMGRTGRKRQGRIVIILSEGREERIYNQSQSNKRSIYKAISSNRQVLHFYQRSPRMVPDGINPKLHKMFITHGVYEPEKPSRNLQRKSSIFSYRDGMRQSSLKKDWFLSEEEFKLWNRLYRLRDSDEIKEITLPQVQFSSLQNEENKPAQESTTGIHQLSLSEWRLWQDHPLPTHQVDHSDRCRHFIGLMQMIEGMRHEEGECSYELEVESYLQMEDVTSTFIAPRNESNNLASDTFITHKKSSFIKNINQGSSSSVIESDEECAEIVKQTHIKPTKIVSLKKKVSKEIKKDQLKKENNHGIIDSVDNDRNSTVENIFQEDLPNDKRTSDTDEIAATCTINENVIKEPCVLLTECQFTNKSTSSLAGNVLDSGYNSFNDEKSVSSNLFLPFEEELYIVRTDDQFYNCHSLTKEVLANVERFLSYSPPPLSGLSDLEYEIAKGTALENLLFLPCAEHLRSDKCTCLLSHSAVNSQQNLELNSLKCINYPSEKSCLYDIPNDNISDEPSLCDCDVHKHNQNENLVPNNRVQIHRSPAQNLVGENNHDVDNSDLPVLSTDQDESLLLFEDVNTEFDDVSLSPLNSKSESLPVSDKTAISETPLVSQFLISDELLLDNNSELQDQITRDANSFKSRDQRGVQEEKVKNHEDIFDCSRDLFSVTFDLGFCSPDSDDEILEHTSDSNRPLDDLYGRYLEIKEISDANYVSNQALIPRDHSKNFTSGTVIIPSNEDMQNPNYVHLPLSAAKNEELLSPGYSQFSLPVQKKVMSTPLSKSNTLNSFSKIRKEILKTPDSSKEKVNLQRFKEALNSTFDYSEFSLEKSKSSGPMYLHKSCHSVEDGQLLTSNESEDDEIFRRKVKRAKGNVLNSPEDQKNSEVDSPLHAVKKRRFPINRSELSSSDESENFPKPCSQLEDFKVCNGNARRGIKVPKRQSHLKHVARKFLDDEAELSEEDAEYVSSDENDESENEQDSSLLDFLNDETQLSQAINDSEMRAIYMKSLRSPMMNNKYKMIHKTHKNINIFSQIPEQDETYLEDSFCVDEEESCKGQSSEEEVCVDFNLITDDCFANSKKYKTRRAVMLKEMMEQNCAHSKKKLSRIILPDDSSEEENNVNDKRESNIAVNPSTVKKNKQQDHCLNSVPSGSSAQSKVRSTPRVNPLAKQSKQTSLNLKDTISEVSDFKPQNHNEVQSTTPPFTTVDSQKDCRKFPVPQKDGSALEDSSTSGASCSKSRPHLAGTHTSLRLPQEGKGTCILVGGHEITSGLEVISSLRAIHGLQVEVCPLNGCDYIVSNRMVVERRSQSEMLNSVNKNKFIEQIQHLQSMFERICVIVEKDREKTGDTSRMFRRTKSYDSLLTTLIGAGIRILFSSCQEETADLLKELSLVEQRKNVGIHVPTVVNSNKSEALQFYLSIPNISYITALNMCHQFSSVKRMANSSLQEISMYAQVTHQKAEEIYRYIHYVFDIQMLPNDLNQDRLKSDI
UniProt P54132: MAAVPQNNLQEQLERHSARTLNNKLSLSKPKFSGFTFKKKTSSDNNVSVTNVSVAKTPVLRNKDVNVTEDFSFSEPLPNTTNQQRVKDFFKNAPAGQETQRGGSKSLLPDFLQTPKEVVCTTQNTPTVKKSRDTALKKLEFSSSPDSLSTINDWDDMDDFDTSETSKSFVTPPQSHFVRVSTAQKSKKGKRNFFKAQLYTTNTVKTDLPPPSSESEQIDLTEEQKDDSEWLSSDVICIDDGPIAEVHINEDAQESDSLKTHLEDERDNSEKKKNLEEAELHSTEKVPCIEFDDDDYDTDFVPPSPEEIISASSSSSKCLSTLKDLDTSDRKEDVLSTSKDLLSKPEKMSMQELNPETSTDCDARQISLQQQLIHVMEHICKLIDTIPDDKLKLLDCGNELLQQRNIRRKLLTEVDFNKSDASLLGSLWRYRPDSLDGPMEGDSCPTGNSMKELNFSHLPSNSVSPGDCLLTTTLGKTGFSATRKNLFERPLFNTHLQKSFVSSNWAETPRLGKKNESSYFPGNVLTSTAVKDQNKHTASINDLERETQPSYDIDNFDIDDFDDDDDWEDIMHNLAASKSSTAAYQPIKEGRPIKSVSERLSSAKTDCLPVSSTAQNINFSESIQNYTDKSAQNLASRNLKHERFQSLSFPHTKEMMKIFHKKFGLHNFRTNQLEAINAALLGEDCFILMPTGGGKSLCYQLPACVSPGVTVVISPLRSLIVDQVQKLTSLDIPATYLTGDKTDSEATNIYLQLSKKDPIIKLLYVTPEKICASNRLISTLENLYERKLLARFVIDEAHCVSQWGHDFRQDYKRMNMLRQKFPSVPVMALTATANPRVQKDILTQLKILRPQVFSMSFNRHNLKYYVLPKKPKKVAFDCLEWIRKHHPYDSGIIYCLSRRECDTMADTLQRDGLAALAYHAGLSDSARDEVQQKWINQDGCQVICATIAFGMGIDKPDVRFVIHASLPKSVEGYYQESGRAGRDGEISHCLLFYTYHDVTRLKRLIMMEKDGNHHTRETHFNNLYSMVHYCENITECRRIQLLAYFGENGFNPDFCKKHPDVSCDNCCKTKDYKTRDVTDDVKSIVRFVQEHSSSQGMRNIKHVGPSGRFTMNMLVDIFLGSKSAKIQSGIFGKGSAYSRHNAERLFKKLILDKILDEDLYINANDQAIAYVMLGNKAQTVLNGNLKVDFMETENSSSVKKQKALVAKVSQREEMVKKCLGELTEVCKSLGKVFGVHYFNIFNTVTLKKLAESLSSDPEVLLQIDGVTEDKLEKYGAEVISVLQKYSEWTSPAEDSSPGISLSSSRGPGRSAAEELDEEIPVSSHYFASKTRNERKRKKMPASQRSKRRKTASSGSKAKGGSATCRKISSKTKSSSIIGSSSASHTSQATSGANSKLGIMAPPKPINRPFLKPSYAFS
UniProt P12004: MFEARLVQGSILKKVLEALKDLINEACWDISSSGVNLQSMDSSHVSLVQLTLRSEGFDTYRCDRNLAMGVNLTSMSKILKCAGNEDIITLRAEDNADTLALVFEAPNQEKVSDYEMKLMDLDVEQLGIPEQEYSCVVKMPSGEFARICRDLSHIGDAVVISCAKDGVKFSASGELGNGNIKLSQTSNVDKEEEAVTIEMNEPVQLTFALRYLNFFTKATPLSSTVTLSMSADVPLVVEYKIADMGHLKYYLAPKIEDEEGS

In assay [2] the target is T2, Flag-MMS22L (human) (UniProt Q6ZRQ5).
T2 sequence: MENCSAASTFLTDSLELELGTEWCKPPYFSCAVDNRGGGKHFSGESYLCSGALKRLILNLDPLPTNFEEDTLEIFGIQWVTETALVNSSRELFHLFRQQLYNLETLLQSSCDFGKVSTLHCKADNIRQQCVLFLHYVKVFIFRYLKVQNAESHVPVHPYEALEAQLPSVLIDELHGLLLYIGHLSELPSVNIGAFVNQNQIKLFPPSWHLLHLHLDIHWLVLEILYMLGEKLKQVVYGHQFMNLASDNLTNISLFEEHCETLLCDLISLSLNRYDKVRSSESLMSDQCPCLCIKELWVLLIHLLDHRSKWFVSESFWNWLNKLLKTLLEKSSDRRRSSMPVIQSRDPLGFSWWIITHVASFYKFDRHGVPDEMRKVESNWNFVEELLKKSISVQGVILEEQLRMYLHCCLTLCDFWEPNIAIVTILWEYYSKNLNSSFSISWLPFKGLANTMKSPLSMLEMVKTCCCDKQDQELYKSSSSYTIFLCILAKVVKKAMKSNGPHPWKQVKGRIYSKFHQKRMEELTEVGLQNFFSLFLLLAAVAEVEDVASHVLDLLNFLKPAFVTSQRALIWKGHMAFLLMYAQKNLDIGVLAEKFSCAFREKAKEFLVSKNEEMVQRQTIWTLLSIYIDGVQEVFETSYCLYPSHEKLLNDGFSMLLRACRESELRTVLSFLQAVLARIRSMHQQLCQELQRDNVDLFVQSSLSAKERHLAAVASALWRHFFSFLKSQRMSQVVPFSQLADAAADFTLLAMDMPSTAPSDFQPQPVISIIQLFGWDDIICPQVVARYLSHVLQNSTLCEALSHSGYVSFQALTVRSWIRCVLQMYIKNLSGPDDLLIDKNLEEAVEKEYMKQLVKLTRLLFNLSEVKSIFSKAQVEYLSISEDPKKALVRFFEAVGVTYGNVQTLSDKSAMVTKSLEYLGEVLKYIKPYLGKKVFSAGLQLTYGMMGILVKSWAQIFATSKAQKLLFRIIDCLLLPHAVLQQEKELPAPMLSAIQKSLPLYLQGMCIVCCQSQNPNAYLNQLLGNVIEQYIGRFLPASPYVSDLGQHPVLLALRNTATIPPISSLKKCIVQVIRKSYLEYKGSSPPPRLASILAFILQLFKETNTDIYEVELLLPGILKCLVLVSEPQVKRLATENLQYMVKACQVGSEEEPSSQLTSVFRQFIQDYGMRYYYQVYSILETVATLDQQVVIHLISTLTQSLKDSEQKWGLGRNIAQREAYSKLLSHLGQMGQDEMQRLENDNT
The description is as above.

For assay [3], the target named is Flag-tagged FANCM (human) (UniProt Q8IYD8). The assay is described as follows: affinity purification with mass spectrometry; Flag antibody purification from HU-treated HEK293 cells stably expressing Flag-FANCM.
For assay [4], the target named is FANCM (human (endogenous in HeLa)) (UniProt Q8IYD8). Kind of assay: affinity purification with mass spectrometry; FANCM antibody IP from pooled Superose 6 fractions of chromatin proteins released by micrococcal nuclease and DNase I from HU-treated (2 mM, 24 h) HeLa cells; IP buffer 20 mM HEPES pH 7.9, 200 mM NaCl, 5 mM MgCl2, 0.1% Tween 20.

Results are given in words; binding and its absence hold for the method and conditions named. In cells and extracts the contact can be indirect. These calls come from enrichment with a bait or labelling near it, and not all partners need be listed. For some assays here: Sequences can lack the tags named with a protein.

Consider BLM (from UniProt P54132 1-1417), for which the binding result in assay [1] and in assay [2] was “binds” throughout.
For the molecule PCNA (from UniProt P12004 1-261), the binding entry in assay [1] and in assay [2] was “binds” in each case.

B1: TONSL (natural protein, human (endogenous in HeLa), UniProt Q96HA7 1-1378, looked up)
chain: T1 sequence
notes: TONSL, human, endogenous in HeLa cells; source: endogenous, HeLa
Turning to B1, the binding result in assay [3] and in assay [4] was “binds” in each case.

B2: MMS22L (natural protein, human (endogenous in HeLa), UniProt Q6ZRQ5 1-1243, looked up)
chain: T2 sequence
notes: MMS22L, human, endogenous in HeLa cells; source: endogenous, HeLa
For B2, the binding entry in assay [3] and in assay [4] was “binds” each time.

These data come from publication doi:10.1101/2025.03.07.642025, “The TONSL-MMS22L complex and FANCM form an interdependent complex on chromatin to counter replication stress” (bioRxiv, 2025).
